In PubChem BioAssay AID493014 (National Center for Advancing Translational Sciences (NCATS), 2011):
Hit rate of the full screen: of about 340,000 compounds, about 170 (0.05%) were called active. The shares of active, inactive and inconclusive entries below differ from those in the screen. Calls come from the whole dose curve; as a rule, active = well fitted inhibition curve with a large enough effect in the signal ratio, with a control signal flat (not every such curve was filed as active); inconclusive = small, poorly fitted or top-dose-only effect, or effect the other way, or a change in a side signal; inactive = flat fitted curve, though single readings scatter; the % refers to the signal ratio. Potencies beside an inconclusive call are fits to weak or partial responses and may not hold up.

Test: qHTS Assay to Find Inhibitors of Chronic Active B-Cell Receptor Signaling;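 for activity change, negative = inhibition: plate controls were basal doxycycline-induced cells for no effect and cells given 10 µM MG132 for full effect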
Conditions: ABC-DLBCL IkBa-CBG/CBR reporter, luminescence ratio (green luciferase fused to IkBa over red control in TMD8 lymphoma cells), 4 h; activity change, negative = inhibition: at 46.1 µM (top of the series)
Outline: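 TMD8 human ABC-DLBCL cells with doxycycline-inducible IκBα–green luciferase fusion and unfused red luciferase, in 0.5% FBS medium; compounds up to 46 uM, 4 h at 37C. Green/red luminescence ratio, filter-overlap corrected, fitted to concentration-response curves.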
Potency is the fitted concentration of half-maximal effect.

SMILES | Potency | activity change, negative = inhibition
CCOC(=O)c1ccc(NC(=O)Cc2coc3cc4c(cc23)CCC4)cc1 | inconclusive: 20.6 µM [falling, partial curve, poor fit] | 
Cc1ccc2nc(NC(=O)c3ccc(Cn4cc(Cl)cn4)o3)sc2c1 |  | inconclusive: 6.38%
CCOC(=O)CSc1nnc(NC(=O)c2cccc([N+](=O)[O-])c2C)s1 | inconclusive: 5.8 µM [falling, partial curve] | 
COc1c(C(=O)NC(=S)Nc2nnn(C)n2)cc2ccccc2c1Br |  | inconclusive: 0.348%
Cc1cc(C(=O)N/N=C/c2ccc(OCc3ccccc3)cc2)c(C)o1 | inconclusive: 12.6 µM [falling, single point] | 
O=C(Cc1ccccc1)NCc1ccc(-n2cccc2)cc1 |  | inactive: -3.63%
CCn1c(=O)c(CCC(=O)N2CCOCC2)c(C)c2c(C)nn(-c3ccccc3)c21 |  | inconclusive: 8.34%
COc1ccc(-c2cc(=O)oc3c(O)c(O)ccc23)cc1 |  | inactive: -2.94%
O=C(Cc1cccs1)NCCc1ccc(Cl)cc1 |  | inactive: -0.39%
CCC(=O)Nc1c2c(nn1-c1ccc(OC)cc1)CSC2 |  | inactive: 4.85%
CCSc1nc2sccc2c(=O)n1-c1ccccc1 |  | inconclusive: 3.6%
N#CCSc1nnc(-c2sc3ccccc3c2Cl)o1 |  | inconclusive: -19.4%
O=c1ccnc(S/C=C/c2ccccc2)[nH]1 | inconclusive: 35.5 µM [rising, single point] | 
Cc1nn(C)c(C)c1CS(=O)(=O)c1ccccc1 |  | inconclusive: -2.53%
Cc1cc(NC(=O)c2ccccc2NS(=O)(=O)c2c(C)c(C)cc(C)c2C)no1 |  | inactive: 0.504%
CCN1C(=O)[C@@H]2[C@@H](c3ccc(SC4CCCCC4)cc3)N3CCCC[C@@]3(C(=O)OC)[C@@H]2C1=O |  | inactive: -1.06%
Cc1ccc(C)c(N2CCN(C(=S)NC3CCCCC3)CC2)c1 |  | inactive: 6.91%
COc1ccccc1N(CC(=O)NC1CCCC1)S(=O)(=O)c1cccc(C(F)(F)F)c1 |  | inconclusive: 0.45%
Cc1ccc(S(=O)(=O)CCC(=O)NCCN2C(=O)S/C(=C\c3ccccc3)C2=O)cc1 | inconclusive: 18.4 µM [falling, partial curve] | 
Cc1ccc(C(=O)OCC(=O)NC(=O)c2cccn2C)cc1 | inconclusive: 3.66 µM [rising, single point] | 
CCn1cc(C(=O)NCCc2ccc(Cl)cc2)c(=O)c2cc(S(=O)(=O)N(C)C)ccc21 |  | inconclusive: 1.31%

Part of the list above in order of number of heavy atoms, smallest number first.
SMILES | Potency | activity change, negative = inhibition
O=C(Cc1ccccc1)NCc1ccc(-n2cccc2)cc1 |  | inactive: -3.63%
Cc1ccc(C)c(N2CCN(C(=S)NC3CCCCC3)CC2)c1 |  | inactive: 6.91%
CCN1C(=O)[C@@H]2[C@@H](c3ccc(SC4CCCCC4)cc3)N3CCCC[C@@]3(C(=O)OC)[C@@H]2C1=O |  | inactive: -1.06%

Continuation:

SMILES | Potency | activity change, negative = inhibition
S=C(NCCC(c1ccccc1)c1ccccc1)Nc1cccc(Cl)c1 |  | inconclusive: 10%
CCOC(=O)c1nnn(-c2nonc2N)c1-c1ccc(Cl)cc1 |  | inactive: 5.86%
Cn1c(CNC(=O)c2ccc3c(c2)OCO3)nnc1SCC(=O)Nc1ccc(F)cc1F |  | inactive: -22.9%
CC1(C)Cc2nc3sc4c(NCCO)ncnc4c3cc2CS1 |  | inactive: 12.3%
Cc1c(NS(=O)(=O)c2cccc([N+](=O)[O-])c2)c(=O)n(-c2ccccc2)n1C |  | inconclusive: 1.4%
CCOc1ccc2nc(SCC#N)c(C#N)cc2c1 |  | inconclusive: 18.4%
CC(/C=N/NC(=O)CSc1nc2ccccc2n1C)=C\c1ccco1 |  | inactive: -8.42%
c1ccc2oc(SCc3cn4ccsc4n3)nc2c1 | inconclusive: 14.1 µM [falling, partial curve, poor fit] | 
CCOC1=C/C(=C/c2c(N)n3nc(-c4ccccc4)sc3nc2=O)C=CC1=O | inconclusive: 15.8 µM [falling, single point] | 
O=C(c1ccc(C#Cc2ccccc2)o1)N1CCN(c2ccccn2)CC1 |  | inconclusive: -3.73%
Cc1cc2ccccc2n1CCNC(=O)Cc1cccc2ccccc12 |  | inconclusive: 1.11%
COc1cc(C(=O)NCCN2CCN(C(=O)c3cc(OC)c(OC)c(OC)c3)CC2)cc(OC)c1OC |  | inconclusive: 1.86%
O=C(Nc1cccnc1Cl)c1cc2ccccc2o1 | inconclusive: 28.2 µM [falling, single point] | 
O=C(N/N=C/c1cccc2nccnc12)c1ccccc1O | inconclusive: 22.4 µM [falling, partial curve] | 
COc1ccccc1N1CCN(CC(=O)Nc2ccc(S(=O)(=O)N3CCCCCC3)cc2)CC1 |  | inconclusive: -2.12%
COc1ccc(-n2c(SCC(=O)NCc3ccccc3)nc3ccsc3c2=O)cc1 |  | inactive: 11.9%
CN1CCN(CC#CC2(O)CCCCC2)CC1 |  | inconclusive: -1.46%
CS(=O)(=O)N1CCC(C(=O)Nc2cccc(Cl)c2Cl)CC1 |  | inactive: 4.39%
O=C(CSc1cn[nH]n1)Nc1cccc(C(=O)O)c1 | inconclusive: 12.6 µM [falling, partial curve] | 
O=C(NNC(=S)NC1CC2CCC1C2)c1ccc(Cl)cc1 (stereo not drawn) | inconclusive: 15.8 µM [falling, partial curve] | 
C1=CC2CC1CC2CN1CCN(Cc2ccccc2)CC1 (stereo not drawn) |  | inactive: 29.4%

SMILES | Potency | activity change, negative = inhibition
Cc1ccc2c(c1)C(c1ccccc1)N(C(=O)c1ccc(Br)o1)CC(=O)N2 (stereo not drawn) | inconclusive: 18.4 µM [rising, single point] | 
Cc1c(C)c(C)c(/C=[N+](/C)[O-])c(C)c1C |  | inconclusive: -4.22%
Cc1cccc(-n2cnc3c(c2=O)c2nc4ccccc4nc2n3Cc2ccco2)c1 | inconclusive: 2.91 µM [rising, partial curve, poor fit] | 
CN1CCCC1CCNc1ccc2c(=O)c3ccccc3oc2c1 (stereo not drawn) |  | inconclusive: 19.5%
COc1ccc(OC)c(NC(=O)c2cccc(S(=O)(=O)N(Cc3ccccc3)c3ccccc3OC)c2)c1 |  | inactive: 9.53%
COc1ccc(NC(=O)c2ccc(=O)oc2)cc1 |  | inactive: -11.7%
CCOC(=O)C(CSCc1ccccc1)NC(=O)OC(C)(C)C (stereo not drawn) |  | inconclusive: 0.0008%
Cc1ccc(S(=O)(=O)O/N=C2\CCCc3ccccc32)cc1 |  | inactive: 1.57%
CC(C)c1nc2sc3c(=O)[nH]cnc3c2c2c1CCC2 |  | inconclusive: 1.3%
C=CCNC(=O)COC(=O)CCC(=O)c1cccs1 | inconclusive: 0.891 µM [falling, full curve, poor fit] | 
CCCCN1C(=O)N(C)C2NC(=O)NC21 (stereo not drawn) |  | inconclusive: 1.49%
Nc1nc2ccccc2n1/N=C/c1ccc([N+](=O)[O-])s1 |  | inactive: 8.66%
CCOc1ccc(C(CC(=O)O)NS(=O)(=O)c2ccc(C)cc2)cc1OC (stereo not drawn) |  | inactive: 0.0195%
O=C(CN1C(=O)CCS(=O)(=O)c2ccccc21)Nc1ccc(F)cc1 | inconclusive: 35.5 µM [falling, partial curve, poor fit] | 
Cc1nc2sc(C(c3ccco3)N3CCN(C(c4ccccc4)c4ccccc4)CC3)c(O)n2n1 (stereo not drawn) |  | inconclusive: -1.82%
COc1ccccc1OC(=O)Cc1cccc2ccccc12 |  | inconclusive: 10.1%
CCOC(=O)N1CCN(CC(=O)Nc2cc(OC)c(OC)cc2C#N)CC1 |  | inconclusive: 8.06%
CN1CCN(C(=S)Nc2ccc([N+](=O)[O-])cc2)CC1 |  | inactive: 4.08%
ONC(=Nc1ccc(Cl)cc1)c1ccc(Cl)cc1 |  | inconclusive: 7.58%
Cc1ccc(-c2nc(N)n(C(=O)c3ccco3)n2)cc1 |  | inconclusive: -0.364%
COc1ccc(/C=C/C(=O)N(C)c2ccccc2C(=O)O)cc1 |  | inconclusive: 4.76%

SMILES | Potency | activity change, negative = inhibition
Cc1cccc(NC(c2ccc(C)s2)c2ccc3ccc(C)nc3c2O)n1 (stereo not drawn) | inconclusive: 9.2 µM [falling, partial curve] | 
O=C(CCNc1cccc(F)c1)c1cc2ccccc2o1 |  | inactive: 1.2%
CCOc1ccc(CCNC(=O)COC(=O)c2cccnc2SC)cc1OCC |  | inactive: 0.861%
Cc1cccc(N2CCN(C(=O)CNC(=O)Cc3ccccc3)CC2)c1C |  | inconclusive: -15.6%
N#Cc1cc(-c2ccccc2)nc(Oc2ccc(Cl)cc2)n1 |  | inconclusive: 0.71%
N#CCCN(C(=O)COC(=O)c1ccc2c(c1)OCO2)c1ccccc1 |  | inconclusive: 0.115%
CCN(CC)c1nc(Oc2ccc(C(=O)NN)cc2)nc(Oc2ccc(C(=O)NN)cc2)n1 | inconclusive: 20 µM [falling, partial curve] | 
O=C(N/N=C/c1ccc(Br)cc1)c1ccc(Br)o1 | inconclusive: 18.4 µM [falling, single point] | 
Cc1noc(C(=O)Nc2ccc(F)cc2F)c1Cl |  | inconclusive: -10.4%
COC(=O)c1[nH]c2ccc(C)cc2c1NC(=O)CN1CCN(C(=O)c2ccccc2)CC1 |  | inconclusive: -10.5%
COc1ccccc1CNC(=O)C(=O)c1cn(CC(=O)N2CCOCC2)c2ccccc12 | inconclusive: 12.6 µM [falling, partial curve] | 
O=C(O)c1ccc(/C=N/NC(=O)c2ccc3c(c2)OCCO3)cc1 | inconclusive: 22.4 µM [falling, single point] | 
Cc1ccc(C)c(N2C(=O)CS/C2=N\NC(=O)c2ccccc2Cl)c1 | inconclusive: 14.6 µM [falling, single point] | 
Clc1ccc2nc(N3CCN(c4ccccc4)CC3)sc2c1 | inconclusive: 0.0411 µM [rising, full curve] | 
CCC(C)NS(=O)(=O)c1ccc(OCC(=O)N2CCC(C)CC2)cc1 (stereo not drawn) |  | inconclusive: 15.9%
CCCCCCNC(=O)c1ccc(Br)o1 |  | inconclusive: 3.09%
COc1ccc(/C=C/c2c([N+](=O)[O-])c(=O)n(C)c(=O)n2C)cc1O | inconclusive: 10.3 µM [falling, partial curve, poor fit] | 
Cc1cc(=O)c2c(o1)CC(C)(C)CC2=O |  | inconclusive: -3.89%
CCOC(=O)/C(N=Nc1ccc(F)cc1)=C(/O)c1ccc([N+](=O)[O-])cc1 | inconclusive: 6.51 µM [falling, single point] | 
CC(=O)c1ccc(S(=O)(=O)N2CCn3cccc3C2c2ccc(F)c(F)c2)cc1 (stereo not drawn) |  | inactive: 7.7%
